{"source": "paper PMC6115418", "assay_in_all_cases": "co-IP; HEK293T co-transfected for 48 h; lysis in 20 mM Tris pH 7.4, 150 mM NaCl, 1% Triton X-100; anti-Flag beads overnight at 4 °C, three washes, western blot; for the Ezh2-M mutant panel cells were pre-treated with MG132 for 6 h", "key": {"[1]": {"target": "full-length Ezh2 (UniProt Q15910)"}, "[2]": {"target": "Ezh2-M (amino acid residues 330-530) (UniProt Q15910)"}, "[3]": {"target": "Ezh2-M T350A/T492A (UniProt Q15910)"}}, "note": "No constants are given. Whether binding was seen depends on the method and setting. Binding seen in cells or lysates may run through a third protein. A result given as binding can be weak or reduced; the word gives no strength.", "data": [{"substance": "HECT domain of Smurf2 (from UniProt Q9HAU4) (domain or fragment)", "values": [{"measurement": "binding", "setting": "[1]", "value": "binds"}, {"measurement": "binding", "setting": "[2]", "value": "binds"}, {"measurement": "binding", "setting": "[3]", "value": "binds"}]}, {"substance": "C2 domain of Smurf2 (from UniProt Q9HAU4) (domain or fragment)", "values": [{"measurement": "binding", "setting": "[1]", "value": "no binding"}]}]}
